The experiment deals with V5-tagged Nedd4-2(CS), catalytically inactive mutant (UniProt Q96PU5). As to the kind of experiment: co-IP; HEK293T or HeLa cells transfected 2 days, iso- or hyper-osmotic medium (600 mOSM) for 15 min; 1 mg cleared lysate (1% Triton X-100, 150 mM NaCl, Hepes pH 7.5); Nedd4-2 immunoprecipitated with anti-V5 affinity beads, DNMBP detected by immunoblot for HA or DNMBP.

Amino acid sequences for entries named in this document (tags omitted). A change or cut given only in a name is not applied to a line headed by its entry.
UniProt Q96PU5: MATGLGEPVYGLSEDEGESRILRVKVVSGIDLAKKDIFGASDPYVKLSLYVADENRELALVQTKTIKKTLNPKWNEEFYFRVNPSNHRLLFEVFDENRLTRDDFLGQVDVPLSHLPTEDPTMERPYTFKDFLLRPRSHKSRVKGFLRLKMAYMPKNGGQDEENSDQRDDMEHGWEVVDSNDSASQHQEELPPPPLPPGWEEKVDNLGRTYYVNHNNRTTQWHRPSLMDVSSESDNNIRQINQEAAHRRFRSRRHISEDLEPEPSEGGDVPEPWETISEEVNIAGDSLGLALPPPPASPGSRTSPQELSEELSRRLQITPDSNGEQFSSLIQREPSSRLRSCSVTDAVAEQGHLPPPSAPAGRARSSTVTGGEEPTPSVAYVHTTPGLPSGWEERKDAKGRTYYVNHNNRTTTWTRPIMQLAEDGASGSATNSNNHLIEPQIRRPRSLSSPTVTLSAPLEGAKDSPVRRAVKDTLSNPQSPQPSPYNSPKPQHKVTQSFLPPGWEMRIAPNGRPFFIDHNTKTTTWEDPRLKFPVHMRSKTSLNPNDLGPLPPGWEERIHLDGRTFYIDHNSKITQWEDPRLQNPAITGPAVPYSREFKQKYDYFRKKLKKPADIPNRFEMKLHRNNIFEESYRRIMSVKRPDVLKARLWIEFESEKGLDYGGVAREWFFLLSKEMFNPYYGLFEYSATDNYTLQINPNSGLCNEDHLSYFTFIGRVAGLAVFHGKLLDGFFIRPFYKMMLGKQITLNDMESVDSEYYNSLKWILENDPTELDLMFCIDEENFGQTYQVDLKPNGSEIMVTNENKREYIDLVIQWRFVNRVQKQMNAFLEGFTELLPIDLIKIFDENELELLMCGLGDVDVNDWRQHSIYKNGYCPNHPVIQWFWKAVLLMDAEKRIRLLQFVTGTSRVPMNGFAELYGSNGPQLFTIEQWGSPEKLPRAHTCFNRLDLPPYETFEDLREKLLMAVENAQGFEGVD
UniProt Q6XZF7: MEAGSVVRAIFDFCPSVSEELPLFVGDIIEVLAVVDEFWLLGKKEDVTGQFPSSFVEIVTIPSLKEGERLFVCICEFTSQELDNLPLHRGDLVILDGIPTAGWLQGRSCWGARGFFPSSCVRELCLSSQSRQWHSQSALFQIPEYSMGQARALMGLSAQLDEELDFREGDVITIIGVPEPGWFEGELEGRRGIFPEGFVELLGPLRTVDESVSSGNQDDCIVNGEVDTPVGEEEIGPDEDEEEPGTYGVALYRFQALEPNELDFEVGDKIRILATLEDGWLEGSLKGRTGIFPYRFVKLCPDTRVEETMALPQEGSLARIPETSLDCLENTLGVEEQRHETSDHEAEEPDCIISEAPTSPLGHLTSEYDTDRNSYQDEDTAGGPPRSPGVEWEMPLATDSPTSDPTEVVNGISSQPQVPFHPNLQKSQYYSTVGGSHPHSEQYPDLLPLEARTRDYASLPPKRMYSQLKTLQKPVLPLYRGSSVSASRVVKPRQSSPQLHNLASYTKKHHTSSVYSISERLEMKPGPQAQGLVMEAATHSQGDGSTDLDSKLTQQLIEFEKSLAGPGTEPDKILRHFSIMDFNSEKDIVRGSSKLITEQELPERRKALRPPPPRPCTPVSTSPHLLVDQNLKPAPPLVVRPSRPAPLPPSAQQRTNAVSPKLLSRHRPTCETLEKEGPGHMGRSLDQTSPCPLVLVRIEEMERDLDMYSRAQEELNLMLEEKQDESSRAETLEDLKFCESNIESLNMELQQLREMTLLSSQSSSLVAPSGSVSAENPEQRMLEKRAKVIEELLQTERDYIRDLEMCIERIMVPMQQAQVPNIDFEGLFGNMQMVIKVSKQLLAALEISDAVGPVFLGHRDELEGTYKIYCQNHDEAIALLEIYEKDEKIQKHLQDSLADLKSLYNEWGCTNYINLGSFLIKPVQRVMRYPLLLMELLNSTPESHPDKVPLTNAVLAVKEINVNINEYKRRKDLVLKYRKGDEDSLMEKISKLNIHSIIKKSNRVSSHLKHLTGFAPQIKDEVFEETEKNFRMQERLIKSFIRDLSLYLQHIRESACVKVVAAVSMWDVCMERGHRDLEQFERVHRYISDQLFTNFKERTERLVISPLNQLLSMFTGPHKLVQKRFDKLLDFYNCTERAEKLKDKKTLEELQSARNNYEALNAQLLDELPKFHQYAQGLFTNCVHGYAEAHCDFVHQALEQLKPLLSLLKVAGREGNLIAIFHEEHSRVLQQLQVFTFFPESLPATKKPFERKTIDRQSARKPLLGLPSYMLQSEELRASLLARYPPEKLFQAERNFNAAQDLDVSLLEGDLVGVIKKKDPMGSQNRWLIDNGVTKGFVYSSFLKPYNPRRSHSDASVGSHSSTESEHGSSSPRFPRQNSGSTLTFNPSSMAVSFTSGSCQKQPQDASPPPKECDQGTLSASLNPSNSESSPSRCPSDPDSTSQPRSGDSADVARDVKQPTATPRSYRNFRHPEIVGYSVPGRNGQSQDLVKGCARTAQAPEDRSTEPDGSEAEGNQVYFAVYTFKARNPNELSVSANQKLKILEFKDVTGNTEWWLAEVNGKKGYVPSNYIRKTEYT

The values below come from article PMC12569825.

Results are given in words; binding and its absence hold for the method and conditions named. Binding seen in cells or lysates may run through a third protein. A result given as binding can be weak or reduced; the word gives no strength.

With “HA-tagged Dynamin Binding Protein (DNMBP) (from UniProt Q6XZF7 1-1577)”, the binding result is recorded as “binds”.
